doi:10.1101/2025.10.30.684516
No constants are given. Whether binding was seen depends on the method and setting. Binding seen in cells or lysates may run through a third protein. A yes stands for co-enrichment or nearness to the bait. Other partners may have been found.

By UniProt entry, the sequences of proteins in these tests, tags left out.
UniProt P08670: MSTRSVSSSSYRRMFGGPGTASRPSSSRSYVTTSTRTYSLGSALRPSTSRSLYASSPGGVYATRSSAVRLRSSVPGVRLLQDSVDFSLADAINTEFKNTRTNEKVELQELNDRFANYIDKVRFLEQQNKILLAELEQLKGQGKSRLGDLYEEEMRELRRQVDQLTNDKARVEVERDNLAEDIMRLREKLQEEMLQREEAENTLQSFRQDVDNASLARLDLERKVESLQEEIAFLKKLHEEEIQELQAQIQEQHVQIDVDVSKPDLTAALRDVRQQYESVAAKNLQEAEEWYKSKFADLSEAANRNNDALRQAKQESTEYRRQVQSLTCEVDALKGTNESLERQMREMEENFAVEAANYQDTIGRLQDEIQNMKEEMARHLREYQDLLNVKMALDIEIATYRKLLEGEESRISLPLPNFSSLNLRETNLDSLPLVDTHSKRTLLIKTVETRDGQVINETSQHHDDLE

B1: RER1 (protein, UniProt O15258 1-196)
chain: MSEGDSVGESVHGKPSVVYRFFTRLGQIYQSWLDKSTPYTAVRWVVTLGLSFVYMIRVYLLQGWYIVTYALGIYHLNLFIAFLSPKVDPSLMEDSDDGPSLPTKQNEEFRPFIRRLPEFKFWHAATKGILVAMVCTFFDAFNVPVFWPILVMYFIMLFCITMKRQIKHMIKYRYIPFTHGKRRYRGKEDAGKAFAS
B2: DDX19A (protein, UniProt Q9NUU7 1-478)
chain: MATDSWALAVDEQEAAVKSMTNLQIKEEKVKADTNGIIKTSTTAEKTDEEEKEDRAAQSLLNKLIRSNLVDNTNQVEVLQRDPNSPLYSVKSFEELRLKPQLLQGVYAMGFNRPSKIQENALPMMLAEPPQNLIAQSQSGTGKTAAFVLAMLSRVEPSDRYPQCLCLSPTYELALQTGKVIEQMGKFYPELKLAYAVRGNKLERGQKISEQIVIGTPGTVLDWCSKLKFIDPKKIKVFVLDEADVMIATQGHQDQSIRIQRMLPRNCQMLLFSATFEDSVWKFAQKVVPDPNVIKLKREEETLDTIKQYYVLCSSRDEKFQALCNLYGAITIAQAMIFCHTRKTASWLAAELSKEGHQVALLSGEMMVEQRAAVIERFREGKEKVLVTTNVCARGIDVEQVSVVINFDLPVDKDGNPDNETYLHRIGRTGRFGKRGLAVNMVDSKHSMNILNRIQEHFNKKIERLDTDDLDEIEKIAN
B3: TWF2 (protein, UniProt Q6IBS0 1-349)
chain: MAHQTGIHATEELKEFFAKARAGSVRLIKVVIEDEQLVLGASQEPVGRWDQDYDRAVLPLLDAQQPCYLLYRLDSQNAQGFEWLFLAWSPDNSPVRLKMLYAATRATVKKEFGGGHIKDELFGTVKDDLSFAGYQKHLSSCAAPAPLTSAERELQQIRINEVKTEISVESKHQTLQGLAFPLQPEAQRALQQLKQKMVNYIQMKLDLERETIELVHTEPTDVAQLPSRVPRDAARYHFFLYKHTHEGDPLESVVFIYSMPGYKCSIKERMLYSSCKSRLLDSVEQDFHLEIAKKIEIGDGAELTAEFLYDEVHPKQHAFKQAFAKPKGPGGKRGHKRLIRGPGENGDDS
B4: ARMCX3 (protein, UniProt Q9UH62 1-379)
chain: MGYARKVGWVTAGLVIGAGACYCIYRLTRGRKQNKEKMAEGGSGDVDDAGDCSGARYNDWSDDDDDSNESKSIVWYPPWARIGTEAGTRARARARARATRARRAVQKRASPNSDDTVLSPQELQKVLCLVEMSEKPYILEAALIALGNNAAYAFNRDIIRDLGGLPIVAKILNTRDPIVKEKALIVLNNLSVNAENQRRLKVYMNQVCDDTITSRLNSSVQLAGLRLLTNMTVTNEYQHMLANSISDFFRLFSAGNEETKLQVLKLLLNLAENPAMTRELLRAQVPSSLGSLFNKKENKEVILKLLVIFENINDNFKWEENEPTQNQFGEGSLFFFLKEFQVCADKVLGIESHHDFLVKVKVGKFMAKLAEHMFPKSQE
B5: CLTA (protein, UniProt P09496 1-248)
chain: MAELDPFGAPAGAPGGPALGNGVAGAGEEDPAAAFLAQQESEIAGIENDEAFAILDGGAPGPQPHGEPPGGPDAVDGVMNGEYYQESNGPTDSYAAISQVDRLQSEPESIRKWREEQMERLEALDANSRKQEAEWKEKAIKELEEWYARQDEQLQKTKANNRVADEAFYKQPFADVIGYVTNINHPCYSLEQAAEEAFVNDIDESSPGTEWERVARLCDFNPKSSKQAKDVSRMRSVLISLKQAPLVH
B6: PPP6C (protein phosphatase 6 catalytic subunit) (protein, UniProt O00743 1-305)
chain: MAPLDLDKYVEIARLCKYLPENDLKRLCDYVCDLLLEESNVQPVSTPVTVCGDIHGQFYDLCELFRTGGQVPDTNYIFMGDFVDRGYYSLETFTYLLALKAKWPDRITLLRGNHESRQITQVYGFYDECQTKYGNANAWRYCTKVFDMLTVAALIDEQILCVHGGLSPDIKTLDQIRTIERNQEIPHKGAFCDLVWSDPEDVDTWAISPRGAGWLFGAKVTNEFVHINNLKLICRAHQLVHEGYKFMFDEKLVTVWSAPNYCYRCGNIASIMVFKDVNTREPKLFRAVPDSERVIPPRTTTPYFL
B7: LASP1 (protein, UniProt Q14847 1-261)
chain: MNPNCARCGKIVYPTEKVNCLDKFWHKACFHCETCKMTLNMKNYKGYEKKPYCNAHYPKQSFTMVADTPENLRLKQQSELQSQVRYKEEFEKNKGKGFSVVADTPELQRIKKTQDQISNIKYHEEFEKSRMGPSGGEGMEPERRDSQDGSSYRRPLEQQQPHHIPTSAPVYQQPQQQPVAQSYGGYKEPAAPVSIQRSAPGGGGKRYRAVYDYSAADEDEVSFQDGDTIVNVQQIDDGWMYGTVERTGDTGMLPANYVEAI
B8: A2M (protein, UniProt P01023 24-1474)
chain: SVSGKPQYMVLVPSLLHTETTEKGCVLLSYLNETVTVSASLESVRGNRSLFTDLEAENDVLHCVAFAVPKSSSNEEVMFLTVQVKGPTQEFKKRTTVMVKNEDSLVFVQTDKSIYKPGQTVKFRVVSMDENFHPLNELIPLVYIQDPKGNRIAQWQSFQLEGGLKQFSFPLSSEPFQGSYKVVVQKKSGGRTEHPFTVEEFVLPKFEVQVTVPKIITILEEEMNVSVCGLYTYGKPVPGHVTVSICRKYSDASDCHGEDSQAFCEKFSGQLNSHGCFYQQVKTKVFQLKRKEYEMKLHTEAQIQEEGTVVELTGRQSSEITRTITKLSFVKVDSHFRQGIPFFGQVRLVDGKGVPIPNKVIFIRGNEANYYSNATTDEHGLVQFSINTTNVMGTSLTVRVNYKDRSPCYGYQWVSEEHEEAHHTAYLVFSPSKSFVHLEPMSHELPCGHTQTVQAHYILNGGTLLGLKKLSFYYLIMAKGGIVRTGTHGLLVKQEDMKGHFSISIPVKSDIAPVARLLIYAVLPTGDVIGDSAKYDVENCLANKVDLSFSPSQSLPASHAHLRVTAAPQSVCALRAVDQSVLLMKPDAELSASSVYNLLPEKDLTGFPGPLNDQDNEDCINRHNVYINGITYTPVSSTNEKDMYSFLEDMGLKAFTNSKIRKPKMCPQLQQYEMHGPEGLRVGFYESDVMGRGHARLVHVEEPHTETVRKYFPETWIWDLVVVNSAGVAEVGVTVPDTITEWKAGAFCLSEDAGLGISSTASLRAFQPFFVELTMPYSVIRGEAFTLKATVLNYLPKCIRVSVQLEASPAFLAVPVEKEQAPHCICANGRQTVSWAVTPKSLGNVNFTVSAEALESQELCGTEVPSVPEHGRKDTVIKPLLVEPEGLEKETTFNSLLCPSGGEVSEELSLKLPPNVVEESARASVSVLGDILGSAMQNTQNLLQMPYGCGEQNMVLFAPNIYVLDYLNETQQLTPEIKSKAIGYLNTGYQRQLNYKHYDGSYSTFGERYGRNQGNTWLTAFVLKTFAQARAYIFIDEAHITQALIWLSQRQKDNGCFRSSGSLLNNAIKGGVEDEVTLSAYITIALLEIPLTVTHPVVRNALFCLESAWKTAQEGDHGSHVYTKALLAYAFALAGNQDKRKEVLKSLNEEAVKKDNSVHWERPQKPKAPVGHFYEPQAPSAEVEMTSYVLLAYLTAQPAPTSEDLTSATNIVKWITKQQNAQGGFSSTQDTVVALHALSKYGAATFTRTGKAAQVTIQSSGTFSSKFQVDNNNRLLLQQVSLPELPGEYSMKVTGEGCVYLQTSLKYNILPEKEEFPFALGVQTLPQTCDEPKAHTSFQISLSVSYTGSRSASNMAIVDVKMVSGFIPLKPTVKMLERSNHVSRTEVSSNHVLIYLDKVSNQTLSLFFTVLQDVPVRDLKPAIVKVYDYYETDEFAIAEYNAPCSKDLGNA
B9: CSRP1 (protein, UniProt P21291 1-193)
chain: MPNWGGGKKCGVCQKTVYFAEEVQCEGNSFHKSCFLCMVCKKNLDSTTVAVHGEEIYCKSCYGKKYGPKGYGYGQGAGTLSTDKGESLGIKHEEAPGHRPTTNPNASKFAQKIGGSERCPRCSQAVYAAEKVIGAGKSWHKACFRCAKCGKGLESTTLADKDGEIYCKGCYAKNFGPKGFGFGQGAGALVHSE
B10: DUSP1 (Dual-specificity phosphatase 1) (protein, UniProt P28562 1-367)
chain: MVMEVGTLDAGGLRALLGERAAQCLLLDCRSFFAFNAGHIAGSVNVRFSTIVRRRAKGAMGLEHIVPNAELRGRLLAGAYHAVVLLDERSAALDGAKRDGTLALAAGALCREARAAQVFFLKGGYEAFSASCPELCSKQSTPMGLSLPLSTSVPDSAESGCSSCSTPLYDQGGPVEILPFLYLGSAYHASRKDMLDALGITALINVSANCPNHFEGHYQYKSIPVEDNHKADISSWFNEAIDFIDSIKNAGGRVFVHCQAGISRSATICLAYLMRTNRVKLDEAFEFVKQRRSIISPNFSFMGQLLQFESQVLAPHCSAEAGSPAMAVLDRGTSTTTVFNFPVSIPVHSTNSALSYLQSPITTSPSC
B11: BANF1 (protein, UniProt O75531 1-89)
chain: MTTSQKHRDFVAEPMGEKPVGSLAGIGEVLGKKLEERGFDKAYVVLGQFLVLKKDEDLFREWLKDTCGANAKQSRDCFGCLREWCDAFL
B12: HMGB3 (protein, UniProt O15347 1-200)
chain: MAKGDPKKPKGKMSAYAFFVQTCREEHKKKNPEVPVNFAEFSKKCSERWKTMSGKEKSKFDEMAKADKVRYDREMKDYGPAKGGKKKKDPNAPKRPPSGFFLFCSEFRPKIKSTNPGISIGDVAKKLGEMWNNLNDSEKQPYITKAAKLKEKYEKDVADYKSKGKFDGAKGPAKVARKKVEEEDEEEEEEEEEEEEEEDE
B13: PDCD4 (protein, UniProt Q53EL6 1-469)
chain: MDVENEQILNVNPADPDNLSDSLFSGDEENAGTEEIKNEINGNWISASSINEARINAKAKRRLRKNSSRDSGRGDSVSDSGSDALRSGLTVPTSPKGRLLDRRSRSGKGRGLPKKGGAGGKGVWGTPGQVYDVEEVDVKDPNYDDDQENCVYETVVLPLDERAFEKTLTPIIQEYFEHGDTNEVAEMLRDLNLGEMKSGVPVLAVSLALEGKASHREMTSKLLSDLCGTVMSTTDVEKSFDKLLKDLPELALDTPRAPQLVGQFIARAVGDGILCNTYIDSYKGTVDCVQARAALDKATVLLSMSKGGKRKDSVWGSGGGQQSVNHLVKEIDMLLKEYLLSGDISEAEHCLKELEVPHFHHELVYEAIIMVLESTGESTFKMILDLLKSLWKSSTITVDQMKRGYERIYNEIPDINLDVPHSYSVLERFVEECFQAGIISKQLRDLCPSRGRKRFVSEGDGGRLKPESY
B14: SNW1 (protein, UniProt Q13573 1-536)
chain: MALTSFLPAPTQLSQDQLEAEEKARSQRSRQTSLVSSRREPPPYGYRKGWIPRLLEDFGDGGAFPEIHVAQYPLDMGRKKKMSNALAIQVDSEGKIKYDAIARQGQSKDKVIYSKYTDLVPKEVMNADDPDLQRPDEEAIKEITEKTRVALEKSVSQKVAAAMPVRAADKLAPAQYIRYTPSQQGVAFNSGAKQRVIRMVEMQKDPMEPPRFKINKKIPRGPPSPPAPVMHSPSRKMTVKEQQEWKIPPCISNWKNAKGYTIPLDKRLAADGRGLQTVHINENFAKLAEALYIADRKAREAVEMRAQVERKMAQKEKEKHEEKLREMAQKARERRAGIKTHVEKEDGEARERDEIRHDRRKERQHDRNLSRAAPDKRSKLQRNENRDISEVIALGVPNPRTSNEVQYDQRLFNQSKGMDSGFAGGEDEIYNVYDQAWRGGKDMAQSIYRPSKNLDKDMYGDDLEARIKTNRFVPDKEFSGSDRRQRGREGPVQFEEDPFGLDKFLEEAKQHGGSKRPSDSSRPKEHEHEGKKRRKE

target: VIM-APEX2-GFP (UniProt P08670); assay: proximity labelling

binding, binds:
B1
B2
B3
B4
B5
B6
B7
B8
B9
B10
B11
B12
B13
B14
